Laboratory results as given in PubChem BioAssay AID2685 (National Center for Advancing Translational Sciences (NCATS), 2010).
Out of some 320,000 compounds screened, about 2,100 (0.66%) were called active. The inconclusive results got no clear call from the source; some entries with a clear call stand among them for comparison. Calls come from the whole dose curve; as a rule, active = well fitted inhibition curve with a large enough effect in the signal ratio, with a control signal flat (not every such curve was filed as active); inconclusive = small, poorly fitted or top-dose-only effect, or effect the other way, or a change in a side signal; inactive = flat fitted curve, though single readings scatter; the % refers to the signal ratio. A potency beside an inconclusive call is a rough fit, not a confirmed value.

Assay: qHTS Assay for Lipid Storage Modulators in Drosophila S3 Cells
Settings: BODIPY lipid droplet fluorescence, 18-24 h, cells fed with added oleic acid; lipid storage change, negative = inhibition: at 46.1 µM (top of the series) unless noted
Procedure, shortened: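 Laser-scanning cytometry quantifies lipid droplet accumulation (500–530 nm total intensity; droplet/cell object ratio) in oleic acid-fed (400 uM added) Drosophila S3 cells treated with a concentration series. 20 uM Triacsin C defined 100% inhibition.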
% is set by controls: 0 for no effect and ±100 for the full control effect; potency is the fitted concentration of half-maximal effect.

Structure (SMILES) | lipid storage change, negative = inhibition | Potency
CCN(CC)C(=O)Cn1nc(-c2ccc(Cl)cc2)c2ccccc2c1=O | inconclusive: -1.74% | –
O=C(COc1ccccc1Cl)N1CCN(c2ccc([N+](=O)[O-])c(N3CCCCC3)c2)CC1 | – | inconclusive: 3.66 µM [falling, single point]
Cc1oc(-c2ccc(Cl)cc2)cc1C(=O)O | inconclusive: 31.1% | –
CS(=O)(=O)C1=C(O)C(=O)N(CCCC(=O)O)C1c1ccccc1F (stereo unspecified) | inconclusive: 1.57% | –
Cc1ccc(C)c(NC(=O)CS(=O)(=O)c2c[nH]c3ccccc23)c1 | inconclusive: -23.8% | –
CCOC(=O)N1CCN(CC(O)COc2ccc(C)c(C)c2)CC1 (stereo unspecified) | inconclusive: 10.4% | –
CCOC(=O)c1ccc(N2C(=O)c3n[nH]c(C)c3C2c2ccccc2)cc1 (stereo unspecified) | inconclusive: 19% | –
Cc1cc(NC(=O)CCC(=O)N(CCC(C)C)C(C(=O)NC2CCCC2)c2cccnc2)no1 (stereo unspecified) | inconclusive: 12.9% | –
COc1ccc(C)cc1NC(=O)C1COc2ccccc2O1 (stereo unspecified) | inconclusive: 11.6% | –
CC1CCCCC1NC(=O)C1CCN(S(=O)(=O)c2ccc(-n3cnnn3)cc2)CC1 (stereo unspecified) | – | inconclusive: 1.16 µM [activator, partial curve, poor fit]
Nc1c(Cl)cc(Cl)cc1C(=O)OCC(=O)NC1CC1 | – | inconclusive: 6.51 µM [rising, single point]
COc1ccc(CCNC(=O)c2cc3c(=O)n4ccccc4nc3n(CC3CCCO3)c2=N)cc1OC (stereo unspecified) | inconclusive: 25.1% | –
CCOc1ccccc1CN1CCCC(C(=O)c2ccc(OC)c(OC)c2)C1 (stereo unspecified) | inconclusive: -50.4% | –
COc1ccc(NC(=O)Cn2c(=O)oc3cc(Cl)ccc32)c(OC)c1 | inconclusive: -17.9% | –
COc1ccc(NC(=O)NC(C)c2ccccc2)cc1 (stereo unspecified) | inconclusive: -11.5% | –
COC(=O)c1c(C(=O)OC)c(-c2ccccc2)n2c1CCC2 | inconclusive: 1.64% | –
CCN(CC)CCN(Cc1cc2cc3c(cc2[nH]c1=O)OCCO3)C(=S)NCC(C)C | inconclusive: 112% | –
COc1ccc(C2CC(c3ccccc3)=NN2C(=O)c2cccs2)cc1 (stereo unspecified) | inconclusive: -40.8% | –
COc1ccc(C(=O)CSc2[nH]c(=O)cc(C(F)(F)F)c2C#N)cc1 | inconclusive: 7.24% | –
Cc1nc(NC(=O)CCl)sc1C(=O)N(C)C | inconclusive: -12.3% | –
COC(=O)c1cc(NC(=O)c2ccc(-c3ccccc3)cc2)ccc1Cl | inconclusive: 19.8% | –
Cc1ccc(C)c(NC(=O)CCN2CCN(CCO)CC2)c1 | – | inconclusive: 6.51 µM [falling, partial curve, poor fit]
O=C1/C(=C/c2coc3ccc(O)cc3c2=O)SC(=S)N1c1ccccc1 | inconclusive: 6.16% | –
CCOc1ccc(Br)cc1S(=O)(=O)Nc1cccc(S(=O)(=O)NC2=NCCC2)c1 | – | inconclusive: 29.1 µM [falling, single point]
c1cnc2c(SCc3ccc(-c4nnco4)cc3)cccc2c1 | – | inconclusive: 6.51 µM [falling, full curve, poor fit]
CC(C)C[C@@H](C(=O)NC1CCN(Cc2ccccc2)CC1)N1C(=O)N2CCc3c([nH]c4ccccc34)[C@@]2(C)C1=O | inconclusive: -34.5% | –

Structure (SMILES) | lipid storage change, negative = inhibition | Potency
CC(NC(=O)C12CC3CC(CC(C3)C1)C2)C(=O)N/N=C/C1=C(N2CCOCC2)C(=C\c2cccc([N+](=O)[O-])c2)/CC1 (stereo unspecified) | – | active: 13 µM
COc1ccccc1N(C)S(=O)(=O)c1ccc(Cl)c(C(=O)N2CCC(C(N)=O)CC2)c1 | inconclusive: 34.5% | –
CC(C)c1csc(CN2CCC(N3CCC(C(=O)N4CCOCC4)CC3)CC2)n1 | inconclusive: -15.1% | –
COc1ccc(C(CNC(=O)COc2ccccc2C#N)N2CCOCC2)cc1 (stereo unspecified) | inconclusive: 6% | –
CCc1c(O)nc(SCc2ccc(F)cc2)[nH]c1=O | inconclusive: 14.4% | –
Cc1onc(-c2ccccc2Cl)c1-c1nc(-c2ccncc2)no1 | – | inconclusive: 0.517 µM [activator, full curve]
O=C(CCNC(=O)c1ccc(Cl)cc1)Nc1ccc(S(=O)(=O)N2CCCCC2)cc1 | inconclusive: 28.1% | –
Cc1cc(C(=O)NCc2ccc(S(N)(=O)=O)cc2)ccc1[N+](=O)[O-] | inconclusive: 7.15% | –
CCN(CC)CCn1c2ccccc2c2cnc(N=CN(C)C)c(C#N)c21 | inconclusive: 27.6% | –
COc1ccc(C(=O)NCC(=O)N2CCC(Cc3ccccc3)CC2)cc1OC | inconclusive | –
CCOc1ccc(C(=O)N(CC(=O)Nc2cccc(C)c2C)CC2CCCO2)cc1OC (stereo unspecified) | – | inconclusive: 0.461 µM [falling, full curve]
COc1ccc(C(=O)NCCCc2nc3ccccc3n2Cc2ccccc2C)cc1OC | – | inconclusive: 1.03 µM [activator, full curve, poor fit]
Cc1ccc(S(=O)(=O)NCc2cn3c(C)csc3n2)cc1 | – | inconclusive: 2.31 µM [rising, partial curve]
Cc1nc2ccc(S(=O)(=O)NCC(=O)O)cc2s1 | – | inconclusive: 29.1 µM [falling, single point]
O=C(NCCc1ccc(Cl)cc1)c1n[nH]c2ccccc12 | – | inconclusive: 29.1 µM [activator, single point]
CCN(CC)c1ccc(/C=C2\SC(=O)N(C(C)C)C2=O)o1 | – | inconclusive: 16.4 µM [cytotoxic, partial curve]
Cc1cccc(NC(=O)c2ccc(NCC3CCCO3)c([N+](=O)[O-])c2)c1 (stereo unspecified) | inconclusive: 9.79% | –
Fc1ccccc1Cn1cc(C(=S)N2CCOCC2)c2ccccc21 | inconclusive: 14.2% | –
CS(=O)(=O)C1=NSC2=NC(=O)/C(=C\c3ccc(OS(=O)(=O)c4ccccc4)cc3)C(=N)N21 | inconclusive: 277% | –
CCOC(=O)c1cnc2c(C(=O)OC)cccc2c1NCc1ccco1 | – | inconclusive: 18.4 µM [activator, partial curve]
CCc1ccc(C(=O)COC(=O)c2cc([N+](=O)[O-])ccc2N2CCOCC2)cc1 | inconclusive | –
Cc1cc2oc(C(=O)NC3CCS(=O)(=O)C3)c(C)c2cc1C (stereo unspecified) | inconclusive: 50.2% | –
CCN(C(=O)COC(=O)c1nc2nc(C)cc(C)n2n1)C1CCS(=O)(=O)C1 (stereo unspecified) | inconclusive: 21.3% | –
CC1CCCCC1NS(=O)(=O)c1ccc2c(c1)CCC(=O)N2 (stereo unspecified) | inconclusive: 2.95% | –
Cc1nnc2ccc(-c3cccc(NS(=O)(=O)c4ccccc4Cl)c3)nn12 | inconclusive | –
Cc1nc(NS(=O)(=O)c2ccccc2C)c2c3c(sc2n1)CCC3 | inconclusive: -2.56% | –

Structure (SMILES) | lipid storage change, negative = inhibition | Potency
Cc1oc2ccc(OC(=O)COc3c(F)c(F)c(F)c(F)c3F)cc2c1C(=O)OC(C)C | inconclusive: -2.05% | –
CCn1cc(CCCC(=O)NCc2cccc(OC)c2)c2ccccc21 | – | inconclusive: 29.1 µM [falling, single point]
O=C(c1ccc(S(=O)(=O)Nc2ccccc2)cc1)N1CCCC1 | inconclusive | –
CCn1c(C)c(C(C)=O)c(N2CCN(c3ccc(OC)cc3)CC2)nc1=S | inconclusive: 1.95% | –
O=C(COC(=O)CN1C(=O)C2CCCCC2C1=O)Nc1ccc(S(=O)(=O)N2CCOCC2)cc1 (stereo unspecified) | inconclusive: -21.9% | –
CCOc1ccc(OCC)c(NC(=O)CC2Oc3ccccc3NC2=O)c1 (stereo unspecified) | inconclusive: -61% | –
CCC(C)Sc1ccc([C@H]2N[C@@](C)(C(=O)OC)[C@H]3C(=O)N(CC)C(=O)[C@@H]23)cc1 (stereo partly specified) | inconclusive: 10.4% | –
CCOc1ccc(C(=O)NC(=S)Nc2ccc(N3CCOCC3)c(Cl)c2)cc1[N+](=O)[O-] | inconclusive: 25.1% | –
C=C1C(=O)C=C[C@]2(C)C[C@@H]3OC(=O)[C@](C)(O)[C@H]3C[C@@H]12 | inconclusive: -50.4% | –
C/C(=N/NS(=O)(=O)c1cccc([N+](=O)[O-])c1)c1c[nH]c2ccccc12 | inactive: 1.43% | –
Cc1cc(C(=O)N(NC(=O)C(C)C)c2ccccc2)cs1 | inconclusive: -27.8% | –
COc1ccc(CNC(=O)CN(Cc2ccc(F)cc2)C(=O)CCC(=O)Nc2nccs2)cc1 | inconclusive: -8.99% | –
CCC(=O)N1CCC(NC(=O)Nc2ccc(OC(F)(F)F)cc2)CC1 | – | inconclusive: 16.4 µM [falling, partial curve, poor fit]
Cc1ccc(OCC(=O)Nc2ccccc2F)cc1C | inconclusive: 4.51% | –
O=C(NCCCn1ccnc1)/C(=C/c1ccco1)NC(=O)c1ccco1 | – | inconclusive: 29.1 µM [falling, single point]
COc1cccc(C(=O)Nc2nnc(CCS(=O)(=O)c3ccc(C)cc3)s2)c1 | inconclusive: 14% | –
Cc1nc(Nc2nc3ccccc3o2)nc2c1CCC2 | inconclusive: -9.49% | –
C/C(CC(=O)NC12CC3CC(CC(C3)C1)C2)=N\NC(=O)c1ccc(F)cc1 | inconclusive: 46.1% | –
COc1ccc(CCNC(=O)c2ccc(Cl)c(S(=O)(=O)N3CCCC3)c2)cc1 | inconclusive: -53.3% | –
CN1CCN(c2oc(COc3ccc(-c4ccccc4)cc3)nc2C#N)CC1 | – | inconclusive: 1.64 µM [activator, partial curve]
CCC(C)Nc1nc(-c2cccc(OC)c2O)nc2ccccc12 (stereo unspecified) | inconclusive: -5.11% | –
CCOc1ccc(CCNC(=O)CN2C(=O)NC3(CCCc4ccccc43)C2=O)cc1OCC (stereo unspecified) | – | inconclusive: 16.4 µM [falling, partial curve, poor fit]
Cc1ccc(S(=O)(=O)NC(=NC2CCCCC2)c2ccc(Cl)cc2)cc1 | inconclusive: 1.6% | –
CCOc1ccc(N2C(=O)CC(Sc3nc(C)cc(C)c3C#N)C2=O)cc1 (stereo unspecified) | inconclusive: -3.86% | –

Single entries from the list:
Entry for `Cc1oc2ccc(OC(=O)COc3c(F)c(F)c(F)c(F)c3F)cc2c1C(=O)OC(C)C` under lipid storage change, negative = inhibition: inconclusive: -2.05%
Entry for `CCOc1ccc(C(=O)NC(=S)Nc2ccc(N3CCOCC3)c(Cl)c2)cc1[N+](=O)[O-]` under lipid storage change, negative = inhibition: inconclusive: 25.1%
Entry for `O=C(COC(=O)CN1C(=O)C2CCCCC2C1=O)Nc1ccc(S(=O)(=O)N2CCOCC2)cc1` (stereo unspecified) under lipid storage change, negative = inhibition: inconclusive: -21.9%
